In article PMC7370100, “In Vitro Assessment of the Genotoxic Hazard of Novel Hydroxamic Acid- and Benzamide-Type Histone Deacetylase Inhibitors (HDACi)” (International Journal of Molecular Sciences, 2020):

How the values were obtained:
Type in all cases: cell-based
[1] = system: SH-SY5Y neuroblastoma cells; test: Alamar blue assay (cell viability), SH-SY5Y cells; settings: Homo sapiens, 72 h, approximate IC50, read-out: IC50 - 72 h Treatment, SH-SY5Y
Method: (§1) V79 hamster lung cells, which are recommended in the OECD toxicology guidelines for hazard identification (i.e., cytotoxicity and genotoxicity) of chemicals, were purchased from the German Collection of Microorganisms and Cell Cultures (DSMZ, Braunschweig, Germany). They were cultured in Dulbecco´s modified Eagle medium and Ham´s F12 medium (DMEM/F12) (PromoCell, Heidelberg, Germany) containing 10% fetal calf serum at 37 °C in a humidified atmosphere containing 5% CO2. VC8 hamster cells were defective in DNA double-strand break (DSB) repair by homologous recombination (HR) due to the lack of functional BRCA2 protein [69, 70]. VC8 cells were provided by B. Kaina (Institute of Toxicology, Mainz, Germany). Nucleotide excision repair defective XPA and CSB deficient cells were also provided by B. Kaina and were described before. They were grown in DMEM containing 10% fetal calf serum. […]
(§2) Cell viability was determined using the Alamar blue assay, which reflected the mitochondrial activity. […] Afterwards, the Neutral red that was taken up by the cells was extracted (50% ethanol/1% of acetic acid, 15 min at room temperature (RT)) and absorbance (540 nm) was measured. […] Approximate IC50 (~IC50, see Supplementary Table S1) were calculated from the corresponding dose-response curves.

[2] = system: IMR-32 neuroblastoma cells; test: Alamar blue assay (cell viability), IMR-32 cells; settings: Homo sapiens
Method: as §1, §2

V79 hamster lung cells [3] = test: Alamar blue assay (cell viability), V79 cells
Method: as §1, §2

[4] = system: IMR-32 neuroblastoma cells; test: Neutral red assay (cytotoxicity), IMR-32 cells; settings: Homo sapiens
Method: as §1, §2

[5] = system: SH-SY5Y neuroblastoma cells; test: Neutral red assay (cytotoxicity), SH-SY5Y cells; settings: Homo sapiens
Method: as §1, §2

V79 hamster lung cells [6] = test: Neutral red assay (cytotoxicity), V79 cells
Method: as §1, §2

[7] = 24 h, approximate IC50, read-out: IC50 - 24 h Treatment, IMR-32
[8] = 72 h, approximate IC50, read-out: IC50 - 72 h Treatment, IMR-32

- IC50 [1]: 1 µM
- IC50 [2, 7]: 5 µM
- IC50 [2, 8]: 0.6 µM
Structure (SMILES): O=C(CCCCCCC(=O)Nc1ccccc1)NO [Vorinostat, vorinostat, reference compound]
- IC50 (V79 hamster lung cells [3]; V79, 24 h after drug treatment (values match Alamar blue data of Table S1), read-out: Viability (IC50) 24 h): 10 µM
- IC50 (V79 hamster lung cells [3]; V79, 72 h after drug treatment (values match Alamar blue data of Table S1), read-out: Viability (IC50) 72 h): 5 µM
- IC50 [4, 7]: > 50 µM
- IC50 [4, 8]: 0.6 µM
- IC50 ([5]; 24 h, approximate IC50, read-out: IC50 - 24 h Treatment, SH-SY5Y): 50 µM
- IC50 ([5]; 72 h, approximate IC50, read-out: IC50 - 72 h Treatment, SH-SY5Y): 2 µM
- IC50 (V79 hamster lung cells [6]; 24 h, approximate IC50, read-out: IC50 - 24 h Treatment, V79): 8 µM
- IC50 (V79 hamster lung cells [6]; 72 h, approximate IC50, read-out: IC50 - 72 h Treatment, V79): 1 µM
